Reference: article PMC10726160
These are yes or no findings as the source states them, for the method shown. Binding seen in cells or lysates may run through a third protein. Some entries that bind do so weakly or less than the wild type.

By UniProt entry, the sequences of proteins in these tests, tags left out.
UniProt Q3UHK8: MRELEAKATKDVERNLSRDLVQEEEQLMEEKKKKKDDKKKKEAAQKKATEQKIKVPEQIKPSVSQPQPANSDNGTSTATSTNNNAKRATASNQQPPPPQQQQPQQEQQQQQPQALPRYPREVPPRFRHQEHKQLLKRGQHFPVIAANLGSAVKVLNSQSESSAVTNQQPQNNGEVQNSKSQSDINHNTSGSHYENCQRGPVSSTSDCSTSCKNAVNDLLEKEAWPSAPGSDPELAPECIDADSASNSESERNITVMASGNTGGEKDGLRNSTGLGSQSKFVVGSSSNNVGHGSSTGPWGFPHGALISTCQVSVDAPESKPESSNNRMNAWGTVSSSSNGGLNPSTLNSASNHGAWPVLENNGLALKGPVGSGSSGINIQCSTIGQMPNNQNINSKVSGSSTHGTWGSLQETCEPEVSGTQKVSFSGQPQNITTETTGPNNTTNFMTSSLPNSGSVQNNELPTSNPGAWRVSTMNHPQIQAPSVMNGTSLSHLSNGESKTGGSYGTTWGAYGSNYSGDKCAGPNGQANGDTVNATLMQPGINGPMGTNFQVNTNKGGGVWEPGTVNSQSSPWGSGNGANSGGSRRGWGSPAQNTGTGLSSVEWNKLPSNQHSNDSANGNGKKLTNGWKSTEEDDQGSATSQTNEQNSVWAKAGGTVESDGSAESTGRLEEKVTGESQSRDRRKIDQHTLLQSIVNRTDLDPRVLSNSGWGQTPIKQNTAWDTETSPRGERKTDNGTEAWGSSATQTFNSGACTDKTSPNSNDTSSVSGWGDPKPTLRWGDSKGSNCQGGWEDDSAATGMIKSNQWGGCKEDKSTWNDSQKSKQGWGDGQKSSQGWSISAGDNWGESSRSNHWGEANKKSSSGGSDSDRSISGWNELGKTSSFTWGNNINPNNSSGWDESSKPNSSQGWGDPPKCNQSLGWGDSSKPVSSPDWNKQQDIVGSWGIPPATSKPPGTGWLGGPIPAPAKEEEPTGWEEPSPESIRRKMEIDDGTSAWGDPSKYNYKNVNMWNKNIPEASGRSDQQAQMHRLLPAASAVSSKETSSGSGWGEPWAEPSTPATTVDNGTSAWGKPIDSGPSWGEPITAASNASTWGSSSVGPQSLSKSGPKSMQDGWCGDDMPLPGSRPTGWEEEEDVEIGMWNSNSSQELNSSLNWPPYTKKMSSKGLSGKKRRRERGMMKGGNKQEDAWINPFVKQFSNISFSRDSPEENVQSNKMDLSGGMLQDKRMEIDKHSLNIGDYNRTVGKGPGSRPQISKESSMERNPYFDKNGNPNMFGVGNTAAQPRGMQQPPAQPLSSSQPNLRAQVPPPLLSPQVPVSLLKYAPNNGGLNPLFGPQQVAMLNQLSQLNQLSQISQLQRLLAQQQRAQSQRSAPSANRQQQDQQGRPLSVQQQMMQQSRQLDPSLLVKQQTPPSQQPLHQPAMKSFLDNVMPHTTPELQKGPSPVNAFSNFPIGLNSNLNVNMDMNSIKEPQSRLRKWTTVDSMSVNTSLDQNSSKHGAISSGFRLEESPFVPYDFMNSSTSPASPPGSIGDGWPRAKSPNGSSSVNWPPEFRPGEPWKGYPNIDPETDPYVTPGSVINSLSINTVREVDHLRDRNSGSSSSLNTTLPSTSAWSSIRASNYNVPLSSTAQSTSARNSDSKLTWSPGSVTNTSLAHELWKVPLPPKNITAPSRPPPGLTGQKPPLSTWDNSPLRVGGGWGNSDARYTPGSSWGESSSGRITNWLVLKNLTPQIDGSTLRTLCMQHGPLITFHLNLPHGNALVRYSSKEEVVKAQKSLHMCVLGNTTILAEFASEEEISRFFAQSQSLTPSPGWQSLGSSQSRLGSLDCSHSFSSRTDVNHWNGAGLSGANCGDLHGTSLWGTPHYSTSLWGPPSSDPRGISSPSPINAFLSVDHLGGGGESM
UniProt Q8CJG0: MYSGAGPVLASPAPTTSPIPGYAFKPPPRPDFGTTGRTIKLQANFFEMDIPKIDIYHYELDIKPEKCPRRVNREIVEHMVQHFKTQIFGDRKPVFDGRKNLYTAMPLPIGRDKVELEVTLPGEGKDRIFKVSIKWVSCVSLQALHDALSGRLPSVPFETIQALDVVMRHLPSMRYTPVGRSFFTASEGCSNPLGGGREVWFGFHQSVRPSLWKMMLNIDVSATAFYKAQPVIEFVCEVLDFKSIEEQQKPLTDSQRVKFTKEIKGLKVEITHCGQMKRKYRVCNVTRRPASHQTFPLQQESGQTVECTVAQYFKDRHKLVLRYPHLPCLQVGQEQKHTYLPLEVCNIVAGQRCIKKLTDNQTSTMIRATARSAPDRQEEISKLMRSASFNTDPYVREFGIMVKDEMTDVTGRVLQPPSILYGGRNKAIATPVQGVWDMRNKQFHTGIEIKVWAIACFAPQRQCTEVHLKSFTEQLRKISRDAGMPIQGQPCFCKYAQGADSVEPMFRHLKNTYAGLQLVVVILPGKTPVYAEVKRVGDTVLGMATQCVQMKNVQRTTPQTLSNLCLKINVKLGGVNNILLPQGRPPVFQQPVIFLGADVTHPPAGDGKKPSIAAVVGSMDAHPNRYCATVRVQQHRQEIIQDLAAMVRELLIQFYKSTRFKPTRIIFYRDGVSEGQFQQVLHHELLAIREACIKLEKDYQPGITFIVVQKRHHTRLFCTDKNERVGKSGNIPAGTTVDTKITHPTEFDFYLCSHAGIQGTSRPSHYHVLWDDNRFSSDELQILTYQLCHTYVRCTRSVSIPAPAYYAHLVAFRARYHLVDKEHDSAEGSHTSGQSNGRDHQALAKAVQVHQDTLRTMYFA

Molecular target: TNGW1, the longer isoform of GW182 (TNRC6A) (mouse (endogenous in OT-I CD8+ T cells)) (UniProt Q3UHK8)
Test: co-IP; anti-GW182 antibody on Protein G Dynabeads; lysates of naive (d0) and d6 activated OT-I CD8+ T cells, 2 x 10^7 cells per IP; bound and unbound fractions blotted with Ago2 and GW182 antibodies

## Argonaute 2 (Ago2) (from UniProt Q8CJG0 1-860)
  binding: binds weakly
